The results in this text go back to the supplement of paper PMC10849652.

Sequences of proteins named here, by UniProt entry; tags and fusion partners are left off. A change or cut given only in a name is not applied to a line headed by its entry.
UniProt Q16762: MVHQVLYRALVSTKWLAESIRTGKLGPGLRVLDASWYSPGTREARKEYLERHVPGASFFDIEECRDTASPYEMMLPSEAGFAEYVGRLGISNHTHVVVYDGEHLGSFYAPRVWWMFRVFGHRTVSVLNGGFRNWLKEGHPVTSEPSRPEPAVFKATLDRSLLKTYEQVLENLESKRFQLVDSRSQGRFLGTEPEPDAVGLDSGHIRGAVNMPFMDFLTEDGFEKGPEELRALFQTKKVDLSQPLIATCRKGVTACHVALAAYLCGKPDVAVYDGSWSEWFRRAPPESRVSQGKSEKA
UniProt Q7Z2T5: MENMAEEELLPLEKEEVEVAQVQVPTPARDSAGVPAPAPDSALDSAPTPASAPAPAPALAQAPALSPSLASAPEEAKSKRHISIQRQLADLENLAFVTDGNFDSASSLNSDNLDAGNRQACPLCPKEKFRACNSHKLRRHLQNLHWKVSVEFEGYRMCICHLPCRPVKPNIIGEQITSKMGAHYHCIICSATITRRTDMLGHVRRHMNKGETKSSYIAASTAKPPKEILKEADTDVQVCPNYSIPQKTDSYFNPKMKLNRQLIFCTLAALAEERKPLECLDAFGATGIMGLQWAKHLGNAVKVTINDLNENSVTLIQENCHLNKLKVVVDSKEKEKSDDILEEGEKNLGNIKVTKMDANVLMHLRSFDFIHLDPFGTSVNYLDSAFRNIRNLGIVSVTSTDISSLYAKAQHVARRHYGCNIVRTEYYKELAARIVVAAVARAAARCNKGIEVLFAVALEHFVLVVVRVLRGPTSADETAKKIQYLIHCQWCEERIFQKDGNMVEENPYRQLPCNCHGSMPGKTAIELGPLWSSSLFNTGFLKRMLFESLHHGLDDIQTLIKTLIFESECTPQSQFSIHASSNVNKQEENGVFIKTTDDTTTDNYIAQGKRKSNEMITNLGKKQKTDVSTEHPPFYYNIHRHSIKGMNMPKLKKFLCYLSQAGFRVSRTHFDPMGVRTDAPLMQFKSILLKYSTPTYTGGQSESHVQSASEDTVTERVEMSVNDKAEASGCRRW
UniProt Q6PGP7, whole entry, looked up: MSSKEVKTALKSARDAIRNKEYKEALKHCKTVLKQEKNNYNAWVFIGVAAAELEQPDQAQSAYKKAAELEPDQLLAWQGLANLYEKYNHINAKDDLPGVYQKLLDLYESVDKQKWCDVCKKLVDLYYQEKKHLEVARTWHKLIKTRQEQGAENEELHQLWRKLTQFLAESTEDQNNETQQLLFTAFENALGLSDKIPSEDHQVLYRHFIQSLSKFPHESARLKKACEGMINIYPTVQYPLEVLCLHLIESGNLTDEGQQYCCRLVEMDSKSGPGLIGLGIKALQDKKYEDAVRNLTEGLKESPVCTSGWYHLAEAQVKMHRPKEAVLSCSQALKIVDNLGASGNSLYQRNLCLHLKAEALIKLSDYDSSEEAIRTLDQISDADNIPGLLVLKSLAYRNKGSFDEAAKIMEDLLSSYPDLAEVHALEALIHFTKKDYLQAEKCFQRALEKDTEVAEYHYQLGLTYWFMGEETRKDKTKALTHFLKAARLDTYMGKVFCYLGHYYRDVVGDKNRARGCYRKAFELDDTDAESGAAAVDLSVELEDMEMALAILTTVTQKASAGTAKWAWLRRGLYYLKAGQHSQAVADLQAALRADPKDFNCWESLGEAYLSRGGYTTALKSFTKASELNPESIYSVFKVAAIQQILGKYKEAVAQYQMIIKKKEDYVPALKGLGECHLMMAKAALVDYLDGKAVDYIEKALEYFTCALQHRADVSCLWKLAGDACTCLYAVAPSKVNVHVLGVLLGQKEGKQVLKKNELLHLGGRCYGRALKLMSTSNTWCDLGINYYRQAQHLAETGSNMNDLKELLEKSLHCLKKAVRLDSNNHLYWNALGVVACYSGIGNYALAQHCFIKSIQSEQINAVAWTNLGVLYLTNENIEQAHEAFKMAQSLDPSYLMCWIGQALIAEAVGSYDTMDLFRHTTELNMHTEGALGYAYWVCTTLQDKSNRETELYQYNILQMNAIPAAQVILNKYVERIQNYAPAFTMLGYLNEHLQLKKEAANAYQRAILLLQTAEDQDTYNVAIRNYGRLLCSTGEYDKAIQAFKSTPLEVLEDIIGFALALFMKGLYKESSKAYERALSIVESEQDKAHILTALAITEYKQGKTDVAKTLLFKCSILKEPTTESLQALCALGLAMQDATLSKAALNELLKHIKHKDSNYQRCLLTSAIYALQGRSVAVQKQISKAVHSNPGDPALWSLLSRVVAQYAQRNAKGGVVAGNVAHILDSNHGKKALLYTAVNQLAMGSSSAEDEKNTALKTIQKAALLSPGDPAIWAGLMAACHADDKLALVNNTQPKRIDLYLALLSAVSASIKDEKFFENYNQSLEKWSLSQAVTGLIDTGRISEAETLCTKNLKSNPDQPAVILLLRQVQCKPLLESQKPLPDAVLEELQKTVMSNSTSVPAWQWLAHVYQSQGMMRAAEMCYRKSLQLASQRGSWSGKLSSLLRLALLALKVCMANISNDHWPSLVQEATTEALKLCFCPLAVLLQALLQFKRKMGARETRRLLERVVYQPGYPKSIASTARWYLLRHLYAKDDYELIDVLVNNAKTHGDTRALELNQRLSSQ
UniProt Q86TN4: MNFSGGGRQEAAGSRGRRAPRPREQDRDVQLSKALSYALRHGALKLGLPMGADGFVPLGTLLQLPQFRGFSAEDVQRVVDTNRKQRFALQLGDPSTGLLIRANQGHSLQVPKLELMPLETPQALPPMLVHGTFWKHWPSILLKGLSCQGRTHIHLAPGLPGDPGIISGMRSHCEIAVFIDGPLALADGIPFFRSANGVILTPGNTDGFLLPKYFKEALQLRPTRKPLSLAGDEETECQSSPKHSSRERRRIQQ
UniProt Q5R3I4: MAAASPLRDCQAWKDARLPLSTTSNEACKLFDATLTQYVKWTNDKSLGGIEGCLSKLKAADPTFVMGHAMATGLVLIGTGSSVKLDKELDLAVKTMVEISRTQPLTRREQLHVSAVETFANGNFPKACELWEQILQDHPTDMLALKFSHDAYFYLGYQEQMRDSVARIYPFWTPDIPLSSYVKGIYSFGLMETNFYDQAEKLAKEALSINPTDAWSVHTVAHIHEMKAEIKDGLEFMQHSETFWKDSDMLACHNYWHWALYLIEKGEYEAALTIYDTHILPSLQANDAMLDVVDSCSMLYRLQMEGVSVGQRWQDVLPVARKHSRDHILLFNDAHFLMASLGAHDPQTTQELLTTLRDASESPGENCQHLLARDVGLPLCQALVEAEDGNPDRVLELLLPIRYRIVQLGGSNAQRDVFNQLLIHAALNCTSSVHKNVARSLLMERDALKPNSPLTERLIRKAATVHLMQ
UniProt Q9H0U9: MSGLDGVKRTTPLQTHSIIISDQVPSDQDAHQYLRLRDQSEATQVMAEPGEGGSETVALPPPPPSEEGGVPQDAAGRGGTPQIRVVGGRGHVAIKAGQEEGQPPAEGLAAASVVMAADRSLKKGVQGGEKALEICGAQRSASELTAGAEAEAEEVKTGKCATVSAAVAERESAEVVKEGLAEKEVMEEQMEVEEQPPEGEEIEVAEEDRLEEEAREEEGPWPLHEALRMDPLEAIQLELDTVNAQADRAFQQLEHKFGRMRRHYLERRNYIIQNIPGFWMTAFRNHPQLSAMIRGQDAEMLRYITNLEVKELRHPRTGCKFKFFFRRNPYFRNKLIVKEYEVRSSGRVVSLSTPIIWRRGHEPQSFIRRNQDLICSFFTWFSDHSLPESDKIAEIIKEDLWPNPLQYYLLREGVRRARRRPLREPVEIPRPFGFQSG
UniProt Q969E8: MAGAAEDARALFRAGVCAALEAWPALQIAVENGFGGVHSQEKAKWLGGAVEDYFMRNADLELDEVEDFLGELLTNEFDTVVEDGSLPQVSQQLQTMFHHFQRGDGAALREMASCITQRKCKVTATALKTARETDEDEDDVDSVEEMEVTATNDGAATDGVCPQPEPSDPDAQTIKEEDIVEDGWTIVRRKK
UniProt Q9NXH9: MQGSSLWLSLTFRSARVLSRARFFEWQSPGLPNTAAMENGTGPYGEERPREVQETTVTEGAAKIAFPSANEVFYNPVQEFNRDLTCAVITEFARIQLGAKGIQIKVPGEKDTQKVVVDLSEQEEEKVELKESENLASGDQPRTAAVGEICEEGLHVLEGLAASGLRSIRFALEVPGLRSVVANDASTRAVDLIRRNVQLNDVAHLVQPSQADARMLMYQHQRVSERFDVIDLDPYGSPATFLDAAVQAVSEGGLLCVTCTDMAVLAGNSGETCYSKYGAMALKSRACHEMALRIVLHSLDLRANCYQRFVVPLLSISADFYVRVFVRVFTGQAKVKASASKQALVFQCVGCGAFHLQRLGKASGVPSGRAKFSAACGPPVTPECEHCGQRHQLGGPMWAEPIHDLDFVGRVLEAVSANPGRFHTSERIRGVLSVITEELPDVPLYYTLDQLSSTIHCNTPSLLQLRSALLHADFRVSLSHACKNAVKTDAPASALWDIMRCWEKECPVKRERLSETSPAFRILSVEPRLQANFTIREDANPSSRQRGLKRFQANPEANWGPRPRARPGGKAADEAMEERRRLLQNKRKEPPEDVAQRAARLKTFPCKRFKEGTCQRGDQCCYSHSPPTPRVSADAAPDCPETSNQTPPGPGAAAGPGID
UniProt Q15643: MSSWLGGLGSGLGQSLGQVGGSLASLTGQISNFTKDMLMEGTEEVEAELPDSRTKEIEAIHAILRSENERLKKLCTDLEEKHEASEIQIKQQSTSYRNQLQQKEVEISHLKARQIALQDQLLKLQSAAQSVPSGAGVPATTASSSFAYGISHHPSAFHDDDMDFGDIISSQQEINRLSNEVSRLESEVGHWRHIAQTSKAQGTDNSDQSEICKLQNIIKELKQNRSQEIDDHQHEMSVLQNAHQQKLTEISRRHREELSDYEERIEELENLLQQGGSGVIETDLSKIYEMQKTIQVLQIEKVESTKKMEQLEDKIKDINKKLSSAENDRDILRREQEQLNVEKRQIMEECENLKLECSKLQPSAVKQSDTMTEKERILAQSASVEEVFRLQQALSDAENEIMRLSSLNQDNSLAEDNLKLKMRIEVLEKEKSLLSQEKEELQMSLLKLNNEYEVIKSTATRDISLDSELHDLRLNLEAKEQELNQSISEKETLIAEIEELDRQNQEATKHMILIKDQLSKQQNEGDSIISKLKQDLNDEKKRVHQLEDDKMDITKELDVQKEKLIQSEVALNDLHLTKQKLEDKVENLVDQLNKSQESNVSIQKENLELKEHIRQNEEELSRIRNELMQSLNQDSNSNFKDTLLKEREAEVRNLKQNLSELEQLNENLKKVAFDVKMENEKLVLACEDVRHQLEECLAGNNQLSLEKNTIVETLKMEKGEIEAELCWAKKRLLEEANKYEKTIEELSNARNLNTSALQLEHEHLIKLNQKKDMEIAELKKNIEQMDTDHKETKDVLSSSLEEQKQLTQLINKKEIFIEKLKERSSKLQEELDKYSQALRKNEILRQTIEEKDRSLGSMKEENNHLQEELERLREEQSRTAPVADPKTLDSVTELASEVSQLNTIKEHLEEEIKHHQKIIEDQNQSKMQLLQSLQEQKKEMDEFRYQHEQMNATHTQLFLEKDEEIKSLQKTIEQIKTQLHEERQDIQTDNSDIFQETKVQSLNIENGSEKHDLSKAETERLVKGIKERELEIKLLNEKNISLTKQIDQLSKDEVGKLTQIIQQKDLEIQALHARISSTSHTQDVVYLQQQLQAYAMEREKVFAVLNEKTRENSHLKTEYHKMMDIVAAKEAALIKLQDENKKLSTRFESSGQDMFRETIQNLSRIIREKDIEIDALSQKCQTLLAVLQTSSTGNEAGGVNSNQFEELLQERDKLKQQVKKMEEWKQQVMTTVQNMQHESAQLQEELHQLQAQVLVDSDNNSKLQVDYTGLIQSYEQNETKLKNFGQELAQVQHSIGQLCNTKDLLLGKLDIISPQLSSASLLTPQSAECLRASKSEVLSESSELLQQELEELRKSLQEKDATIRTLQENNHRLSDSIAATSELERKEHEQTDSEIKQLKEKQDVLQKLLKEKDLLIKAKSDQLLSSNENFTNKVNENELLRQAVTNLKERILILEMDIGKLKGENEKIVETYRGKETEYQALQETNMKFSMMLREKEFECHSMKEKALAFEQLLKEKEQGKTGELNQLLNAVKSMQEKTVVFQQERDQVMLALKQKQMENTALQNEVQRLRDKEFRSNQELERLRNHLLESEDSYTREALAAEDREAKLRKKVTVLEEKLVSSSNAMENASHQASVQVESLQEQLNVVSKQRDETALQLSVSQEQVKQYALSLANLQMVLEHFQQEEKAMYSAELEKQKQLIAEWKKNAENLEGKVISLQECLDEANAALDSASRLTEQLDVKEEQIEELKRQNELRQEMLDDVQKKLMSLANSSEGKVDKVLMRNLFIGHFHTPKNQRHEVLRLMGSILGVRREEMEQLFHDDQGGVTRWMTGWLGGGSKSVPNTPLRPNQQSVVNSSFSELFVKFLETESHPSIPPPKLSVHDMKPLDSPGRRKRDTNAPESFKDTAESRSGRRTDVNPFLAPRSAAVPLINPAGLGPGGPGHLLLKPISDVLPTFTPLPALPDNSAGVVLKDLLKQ

The other results are listed elsewhere or left out.

Compound in the test: Cn1cncc1[C@@](N)(c1ccc(Cl)cc1)c1ccc2c(c1)c(-c1cccc(Cl)c1)cc(=O)n2C [tipifarnib]
In words: log2 fold change, soluble protein after heating vs DMSO (PISA); higher = thermal stabilisation; K562 lysate, 10 uM; active = over 0.2 and 3.5 SD of the protein, either way, in both replicates (recomputed). The essentials:
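Quantification was by TMTpro 16plex LC-MS/MS with equalised channel sums, applied to the supernatant after 21,000xg for 90 min. Samples were crude K562 extract at 1 mg/mL protein in PBS pH 7.4 with 1 mM MgCl2, treated with 10 μM compound for 30 min, heated for 3 min across 48°C-58°C, pooled and brought to 0.5% NP-40 at 4°C. Values are log-two fold changes in thermal stability relative to solvent controls, from duplicates.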
Take TRIM32 (UniProt Q13049): the log2 fold change was inactive: -0.063.

On to TRIM28 (UniProt Q13263), for which the log2 fold change was inactive: 0.013. On to TST (UniProt Q16762), for which the log2 fold change was inactive: -0.026.

For TRMT1L (UniProt Q7Z2T5), the log2 fold change is inactive: -0.009. With TRUB1 (UniProt Q8WWH5) the figure was inactive: -0.015; with TTC37 (UniProt Q6PGP7), inactive: -0.012. As for TRPT1 isoform 4 (UniProt Q86TN4), the log2 fold change was inactive: 0.042.

Take TTC38 (UniProt Q5R3I4): the log2 fold change is inactive: 0.026.

As for TSPYL1 (UniProt Q9H0U9), the log2 fold change was inactive: -0.048. With TRAPPC2 isoform 3 (UniProt P0DI81) the figure was inactive: 0.022; with TRAPPC11 (UniProt Q7Z392), inactive: -0.017; with TSR2 (UniProt Q969E8), inactive: 0.027.

With TRMT1 (UniProt Q9NXH9), the log2 fold change is inactive: 0.028. Consider TTLL12 (UniProt Q14166), for which the log2 fold change was inactive: 0.008. The figure for TTC12 isoform 2 (UniProt Q9H892) is inactive: 0.075; for TRIM58 (UniProt Q8NG06) it is inactive: 0. With TTC4 (UniProt O95801), the log2 fold change was inactive: -0.01. The figure for TRIM56 (UniProt Q9BRZ2) is inactive: -0.048. With TRIP11 (UniProt Q15643) the figure was inactive: -0.107. As for TRIM24 (UniProt O15164), the log2 fold change is inactive: -0.021.

On to TRIAP1 (UniProt O43715), for which the log2 fold change was inactive: 0.029. With TSC22D2 (UniProt O75157) the figure was inactive: 0.03; with TSEN15, A0A2U3TZM3, inactive: -0.269.
